{
  "source": "patent US20060276393A1",
  "about": "“Novel compositions for preventing and treating neurodegenerative and blood coagulation disorders” (Sirtris Pharmaceuticals, Inc., priority 2005, published 2006)",
  "key": {"C. elegans": {"system": "C. elegans", "assay": "C. elegans fecundity and feeding rate", "type": "in vivo"}, "D. melanogaster": {"system": "D. melanogaster", "assay": "D. melanogaster fecundity, feeding and body mass", "type": "in vivo"}},
  "data": [
    {"smiles": "Oc1ccc(/C=C/c2cc(O)cc(O)c2)cc1", "note": "[Resveratrol, 3,5,4′-Trihydroxy-trans-stilbene]", "values": [
      {"measurement": "Fecundity of adult hermaphrodites", "setting": "C. elegans; 100 μM, controls 106", "result": 99, "unit": "eggs/5 worms/5 hours"},
      {"measurement": "Feeding rate", "setting": "C. elegans; Adult on live OP50, 100 μM, control 383±16.0", "result": "383±2.7", "unit": "pumps/min"},
      {"measurement": "Feeding rate", "setting": "C. elegans; LA larval on live OP50, 100 μM, control 310±10.2", "result": "315±9.8", "unit": "pumps/min"},
      {"measurement": "egg production", "setting": "D. melanogaster; 10 μM resveratrol, Canton-S, 15% SY, control 59.9", "result": 69.8, "unit": "eggs/5 days"},
      {"measurement": "body weight", "setting": "D. melanogaster; 10 μM, 15% SY diet", "result": "maintained normal weight"},
      {"measurement": "food uptake", "setting": "D. melanogaster; crop-filling assay, yw females", "result": "no decrease in food uptake"}
    ]}
  ]
}
